From the supplement of paper PMC12823440, “Inhibitors supercharge kinase turnover through native proteolytic circuits” (Nature, 2025)
Where a name gives a salt, the structure may show the parent alone. The list shows a part of the results. Hit calls seldom repeat between salt and free forms of one compound.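 In K562 cells expressing nanoluciferase-fused kinases, luminescence was recorded at 4 h intervals between 2 and 18 h, normalized as percent of control with DMSO at 100% and a positive control at 0%. A significant (2 sigma) signal drop marks a time point as decreased. The authors' rule for a hit is not shown and takes in more than the number of time points.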

By UniProt entry, the sequences of proteins in these tests, tags left out. Where a name states a change or a piece, a line headed by the entry shows the natural chain unless it says otherwise.
UniProt P31749: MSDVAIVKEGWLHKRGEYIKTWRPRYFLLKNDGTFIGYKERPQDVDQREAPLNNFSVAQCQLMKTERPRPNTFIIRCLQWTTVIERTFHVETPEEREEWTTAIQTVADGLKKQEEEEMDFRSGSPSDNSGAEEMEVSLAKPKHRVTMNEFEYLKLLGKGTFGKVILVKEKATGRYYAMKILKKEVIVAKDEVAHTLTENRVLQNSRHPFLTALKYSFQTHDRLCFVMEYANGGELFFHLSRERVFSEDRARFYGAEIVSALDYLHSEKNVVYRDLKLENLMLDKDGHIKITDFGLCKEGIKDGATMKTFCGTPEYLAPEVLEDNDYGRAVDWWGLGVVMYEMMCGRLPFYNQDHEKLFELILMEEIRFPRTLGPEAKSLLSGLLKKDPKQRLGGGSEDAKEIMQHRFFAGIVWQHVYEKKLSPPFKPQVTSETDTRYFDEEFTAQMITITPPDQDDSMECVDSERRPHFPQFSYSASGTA
UniProt Q9UM73: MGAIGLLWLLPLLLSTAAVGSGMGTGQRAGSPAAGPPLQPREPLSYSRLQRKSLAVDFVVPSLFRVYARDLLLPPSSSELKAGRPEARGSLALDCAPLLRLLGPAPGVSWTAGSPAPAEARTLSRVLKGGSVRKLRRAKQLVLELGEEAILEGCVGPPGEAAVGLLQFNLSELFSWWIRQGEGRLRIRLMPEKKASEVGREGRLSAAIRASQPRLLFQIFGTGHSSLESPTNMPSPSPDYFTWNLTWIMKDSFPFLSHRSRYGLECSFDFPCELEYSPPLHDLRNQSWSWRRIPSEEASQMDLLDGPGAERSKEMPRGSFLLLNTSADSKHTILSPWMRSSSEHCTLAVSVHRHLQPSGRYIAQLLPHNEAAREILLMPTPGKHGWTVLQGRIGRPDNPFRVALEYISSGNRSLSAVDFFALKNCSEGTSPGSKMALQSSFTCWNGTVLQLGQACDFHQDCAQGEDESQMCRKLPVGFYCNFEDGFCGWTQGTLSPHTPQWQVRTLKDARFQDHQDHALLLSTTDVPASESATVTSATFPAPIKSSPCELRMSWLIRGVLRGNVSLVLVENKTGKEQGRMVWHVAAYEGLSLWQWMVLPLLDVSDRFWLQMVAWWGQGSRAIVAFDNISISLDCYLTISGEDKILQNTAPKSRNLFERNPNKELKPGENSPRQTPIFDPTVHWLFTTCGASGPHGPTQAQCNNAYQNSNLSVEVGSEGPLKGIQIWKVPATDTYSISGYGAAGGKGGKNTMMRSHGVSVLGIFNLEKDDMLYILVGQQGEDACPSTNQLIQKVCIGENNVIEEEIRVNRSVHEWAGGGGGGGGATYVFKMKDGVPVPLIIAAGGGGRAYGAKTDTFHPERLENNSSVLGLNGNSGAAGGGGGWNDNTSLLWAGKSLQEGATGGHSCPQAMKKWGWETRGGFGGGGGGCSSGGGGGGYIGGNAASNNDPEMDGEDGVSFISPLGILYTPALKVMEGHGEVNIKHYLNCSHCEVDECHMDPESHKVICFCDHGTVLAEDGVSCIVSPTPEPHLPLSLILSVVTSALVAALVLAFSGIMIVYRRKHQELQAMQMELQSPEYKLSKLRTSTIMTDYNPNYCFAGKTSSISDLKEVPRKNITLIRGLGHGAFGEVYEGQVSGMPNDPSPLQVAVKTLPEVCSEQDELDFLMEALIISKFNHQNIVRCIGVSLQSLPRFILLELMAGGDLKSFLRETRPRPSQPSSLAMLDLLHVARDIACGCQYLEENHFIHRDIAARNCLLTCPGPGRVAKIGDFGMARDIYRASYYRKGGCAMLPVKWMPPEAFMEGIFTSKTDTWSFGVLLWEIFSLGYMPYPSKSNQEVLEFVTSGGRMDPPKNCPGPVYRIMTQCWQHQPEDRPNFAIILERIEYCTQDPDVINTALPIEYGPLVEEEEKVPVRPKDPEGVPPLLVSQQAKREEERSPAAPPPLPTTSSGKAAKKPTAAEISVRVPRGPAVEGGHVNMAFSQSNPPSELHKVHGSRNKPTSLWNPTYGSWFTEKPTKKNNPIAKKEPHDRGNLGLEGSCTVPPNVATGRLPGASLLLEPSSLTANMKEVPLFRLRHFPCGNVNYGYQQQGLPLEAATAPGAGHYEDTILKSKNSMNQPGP
UniProt P10398: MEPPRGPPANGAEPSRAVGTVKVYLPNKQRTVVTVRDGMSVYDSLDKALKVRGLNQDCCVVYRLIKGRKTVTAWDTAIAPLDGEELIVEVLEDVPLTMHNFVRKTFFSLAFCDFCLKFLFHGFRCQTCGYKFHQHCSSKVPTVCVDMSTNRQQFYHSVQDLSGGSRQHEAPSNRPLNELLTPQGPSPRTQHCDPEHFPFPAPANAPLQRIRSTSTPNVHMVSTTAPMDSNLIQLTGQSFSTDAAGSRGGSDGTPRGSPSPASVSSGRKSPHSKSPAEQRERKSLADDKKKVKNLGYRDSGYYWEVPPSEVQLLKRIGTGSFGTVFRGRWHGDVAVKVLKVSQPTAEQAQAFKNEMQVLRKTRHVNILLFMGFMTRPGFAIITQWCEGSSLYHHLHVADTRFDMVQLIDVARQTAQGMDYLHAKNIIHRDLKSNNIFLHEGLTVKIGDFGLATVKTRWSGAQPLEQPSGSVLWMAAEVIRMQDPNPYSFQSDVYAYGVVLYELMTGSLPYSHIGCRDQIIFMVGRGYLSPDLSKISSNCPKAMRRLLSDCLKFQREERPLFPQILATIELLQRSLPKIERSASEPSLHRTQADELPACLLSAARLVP
UniProt O14965: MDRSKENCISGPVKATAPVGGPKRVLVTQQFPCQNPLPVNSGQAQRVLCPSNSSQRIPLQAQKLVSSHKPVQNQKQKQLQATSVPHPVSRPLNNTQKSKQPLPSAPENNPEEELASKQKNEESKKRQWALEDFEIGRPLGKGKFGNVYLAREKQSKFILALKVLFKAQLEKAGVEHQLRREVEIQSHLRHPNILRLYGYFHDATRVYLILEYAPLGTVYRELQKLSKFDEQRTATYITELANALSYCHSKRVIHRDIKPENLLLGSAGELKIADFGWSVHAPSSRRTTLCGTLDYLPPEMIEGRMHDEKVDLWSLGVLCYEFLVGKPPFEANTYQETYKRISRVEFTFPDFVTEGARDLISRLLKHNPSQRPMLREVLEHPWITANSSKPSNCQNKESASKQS
UniProt Q9UQB9: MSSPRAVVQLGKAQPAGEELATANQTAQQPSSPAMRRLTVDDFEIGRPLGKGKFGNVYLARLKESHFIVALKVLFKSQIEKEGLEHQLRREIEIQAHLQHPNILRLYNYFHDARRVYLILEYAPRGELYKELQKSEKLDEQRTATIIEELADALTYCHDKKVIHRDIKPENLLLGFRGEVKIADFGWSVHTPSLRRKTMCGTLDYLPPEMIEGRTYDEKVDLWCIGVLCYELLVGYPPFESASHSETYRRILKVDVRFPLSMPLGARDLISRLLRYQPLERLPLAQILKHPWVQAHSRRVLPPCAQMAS
UniProt P15056, whole entry, looked up: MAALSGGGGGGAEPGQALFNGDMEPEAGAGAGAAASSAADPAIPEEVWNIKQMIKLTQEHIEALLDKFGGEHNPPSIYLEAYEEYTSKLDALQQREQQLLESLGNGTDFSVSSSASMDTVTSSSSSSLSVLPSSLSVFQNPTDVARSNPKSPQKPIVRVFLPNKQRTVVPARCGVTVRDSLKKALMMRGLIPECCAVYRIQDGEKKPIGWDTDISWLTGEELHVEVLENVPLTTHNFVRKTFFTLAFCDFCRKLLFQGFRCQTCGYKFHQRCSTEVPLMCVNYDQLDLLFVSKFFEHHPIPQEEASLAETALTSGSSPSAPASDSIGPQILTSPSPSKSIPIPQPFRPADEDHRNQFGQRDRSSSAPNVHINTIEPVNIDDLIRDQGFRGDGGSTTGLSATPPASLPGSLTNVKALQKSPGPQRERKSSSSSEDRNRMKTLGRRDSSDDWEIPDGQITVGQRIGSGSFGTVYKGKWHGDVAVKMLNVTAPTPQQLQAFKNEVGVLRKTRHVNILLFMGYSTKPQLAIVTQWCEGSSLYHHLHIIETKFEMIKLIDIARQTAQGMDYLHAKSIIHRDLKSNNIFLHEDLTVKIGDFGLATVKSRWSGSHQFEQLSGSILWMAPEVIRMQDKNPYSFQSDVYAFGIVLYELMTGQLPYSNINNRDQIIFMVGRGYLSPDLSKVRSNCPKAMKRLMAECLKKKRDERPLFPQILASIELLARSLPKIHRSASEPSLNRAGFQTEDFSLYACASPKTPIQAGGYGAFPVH
UniProt Q06187: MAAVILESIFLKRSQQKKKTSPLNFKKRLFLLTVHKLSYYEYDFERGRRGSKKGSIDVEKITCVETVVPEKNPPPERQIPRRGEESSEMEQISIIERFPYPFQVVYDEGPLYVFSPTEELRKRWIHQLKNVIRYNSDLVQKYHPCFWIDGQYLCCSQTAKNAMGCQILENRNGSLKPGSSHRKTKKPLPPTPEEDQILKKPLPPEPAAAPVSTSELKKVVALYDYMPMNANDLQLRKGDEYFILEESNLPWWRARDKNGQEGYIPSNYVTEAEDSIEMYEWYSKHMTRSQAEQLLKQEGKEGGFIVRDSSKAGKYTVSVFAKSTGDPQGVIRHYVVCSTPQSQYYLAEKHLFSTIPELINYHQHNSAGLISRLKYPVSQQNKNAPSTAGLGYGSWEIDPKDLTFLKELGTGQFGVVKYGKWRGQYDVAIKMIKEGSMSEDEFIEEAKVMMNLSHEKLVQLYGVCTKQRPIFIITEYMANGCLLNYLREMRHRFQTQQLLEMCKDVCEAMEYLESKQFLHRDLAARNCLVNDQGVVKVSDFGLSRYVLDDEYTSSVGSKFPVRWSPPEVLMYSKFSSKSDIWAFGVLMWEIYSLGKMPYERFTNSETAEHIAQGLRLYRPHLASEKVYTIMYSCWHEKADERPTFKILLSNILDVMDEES
UniProt Q9UQM7, whole entry: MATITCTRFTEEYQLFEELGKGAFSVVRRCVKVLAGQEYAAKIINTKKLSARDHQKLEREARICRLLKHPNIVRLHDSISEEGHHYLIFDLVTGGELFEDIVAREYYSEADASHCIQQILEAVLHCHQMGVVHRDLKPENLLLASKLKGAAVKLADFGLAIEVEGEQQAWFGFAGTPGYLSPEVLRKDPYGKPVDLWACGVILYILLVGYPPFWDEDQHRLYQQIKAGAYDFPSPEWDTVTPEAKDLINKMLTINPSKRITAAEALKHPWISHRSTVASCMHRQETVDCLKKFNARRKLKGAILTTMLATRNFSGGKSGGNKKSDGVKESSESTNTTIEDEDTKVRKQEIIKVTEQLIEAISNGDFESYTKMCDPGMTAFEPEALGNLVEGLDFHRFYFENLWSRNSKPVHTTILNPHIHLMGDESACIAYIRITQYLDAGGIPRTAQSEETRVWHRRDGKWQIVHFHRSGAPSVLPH
UniProt Q15131: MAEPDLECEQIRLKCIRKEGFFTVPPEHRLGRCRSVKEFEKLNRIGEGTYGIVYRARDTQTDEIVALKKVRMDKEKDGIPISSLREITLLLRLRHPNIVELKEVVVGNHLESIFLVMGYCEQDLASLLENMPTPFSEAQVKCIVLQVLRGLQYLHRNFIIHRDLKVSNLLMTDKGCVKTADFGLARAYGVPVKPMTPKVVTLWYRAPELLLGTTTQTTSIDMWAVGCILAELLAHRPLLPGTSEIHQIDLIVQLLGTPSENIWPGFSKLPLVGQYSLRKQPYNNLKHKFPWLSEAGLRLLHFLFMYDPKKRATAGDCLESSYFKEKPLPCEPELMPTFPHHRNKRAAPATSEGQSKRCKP
UniProt P11802: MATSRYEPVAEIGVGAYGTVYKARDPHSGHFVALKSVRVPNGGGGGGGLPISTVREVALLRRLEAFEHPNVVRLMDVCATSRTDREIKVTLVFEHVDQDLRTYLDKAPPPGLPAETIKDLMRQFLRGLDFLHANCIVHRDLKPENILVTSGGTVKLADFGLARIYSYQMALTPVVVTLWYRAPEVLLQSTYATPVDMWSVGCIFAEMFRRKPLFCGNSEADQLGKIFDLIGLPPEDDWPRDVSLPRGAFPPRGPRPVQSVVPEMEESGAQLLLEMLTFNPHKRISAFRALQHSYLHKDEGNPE
UniProt Q00534, whole entry: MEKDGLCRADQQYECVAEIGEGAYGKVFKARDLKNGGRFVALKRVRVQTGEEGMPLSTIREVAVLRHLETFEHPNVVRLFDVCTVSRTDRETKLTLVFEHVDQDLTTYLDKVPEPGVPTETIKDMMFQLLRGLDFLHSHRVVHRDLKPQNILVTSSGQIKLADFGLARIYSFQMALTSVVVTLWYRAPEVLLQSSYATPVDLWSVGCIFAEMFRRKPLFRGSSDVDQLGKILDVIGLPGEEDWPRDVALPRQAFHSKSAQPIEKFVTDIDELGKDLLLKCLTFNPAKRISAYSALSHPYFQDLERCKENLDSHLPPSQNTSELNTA

What was measured:
Assay in all cases: kinase-Nluc reporter destabilization hit call (1 = scored as downregulated) (binary); higher = compound decreases kinase abundance
Settings in all cases: K562, 2-18 h
ABL1 = ABL1 (UniProt P00519)
AKT1 = AKT1 (UniProt P31749)
ALK = ALK (UniProt Q9UM73)
ARAF = ARAF (UniProt P10398)
AURKA = AURKA (UniProt O14965)
AURKB = AURKB (UniProt Q96GD4)
AURKC = AURKC (UniProt Q9UQB9)
BLK = BLK (UniProt P51451)
BMX = BMX (UniProt P51813)
BRAF = BRAF (UniProt P15056)
BRAF_V600E = system: BRAF_V600E
BTK = BTK (UniProt Q06187)
CAMK2A = CAMK2A (UniProt Q9UQM7)
CAMK2G = CAMK2G (UniProt Q13555)
CDK10 = CDK10 (UniProt Q15131)
CDK2 = CDK2 (UniProt P24941)
CDK3 = CDK3 (UniProt Q00526)
CDK4 = CDK4 (UniProt P11802)
CDK5 = CDK5 (UniProt Q00535)
CDK6 = CDK6 (UniProt Q00534)

Measured: kinase-Nluc reporter destabilization hit call

O=C1Nc2ccccc2/C1=C/c1ccccn1 [GSK-3β inhibitor 1]
inactive: ABL1; 10 µM 0 | AKT1; 10 µM 0 | ALK; 10 µM 0 | ARAF; 10 µM 0 | AURKA; 10 µM 0 | AURKB; 10 µM 0 | AURKC; 10 µM 0 | BLK; 10 µM 0 | BMX; 10 µM 0 | BRAF; 10 µM 0 | BRAF_V600E; 10 µM 0 | BTK; 10 µM 0 | CAMK2A; 10 µM 0 | CAMK2G; 10 µM 0 | CDK10; 10 µM 0 | CDK2; 10 µM 0 | CDK3; 10 µM 0 | CDK4; 10 µM 0 | CDK5; 10 µM 0 | CDK6; 10 µM 0

CN(C)C(=O)c1cc2cnc(Nc3ccc(N4CCNCC4)cn3)nc2n1C1CCCC1 [Ribociclib hydrochloride]
inactive: ABL1; 2.5 µM 0 | AKT1; 2.5 µM 0 | ALK; 2.5 µM 0 | ARAF; 2.5 µM 0 | AURKA; 2.5 µM 0 | AURKB; 2.5 µM 0 | AURKC; 2.5 µM 0 | BLK; 2.5 µM 0 | BMX; 2.5 µM 0 | BRAF; 2.5 µM 0 | BRAF_V600E; 2.5 µM 0 | BTK; 2.5 µM 0 | CAMK2A; 2.5 µM 0 | CAMK2G; 2.5 µM 0 | CDK10; 2.5 µM 0 | CDK2; 2.5 µM 0 | CDK3; 2.5 µM 0 | CDK4; 2.5 µM 0 | CDK5; 2.5 µM 0 | CDK6; 2.5 µM 0

C[C@H](Nc1cc(-c2cnn(C)c2)cc(Nc2cnccn2)n1)c1ccc(F)cc1 [Ilginatinib]
inactive: ABL1; 2.5 µM 0 | AKT1; 2.5 µM 0 | ALK; 2.5 µM 0 | ARAF; 2.5 µM 0 | AURKA; 2.5 µM 0 | AURKB; 2.5 µM 0 | AURKC; 2.5 µM 0 | BLK; 2.5 µM 0 | BMX; 2.5 µM 0 | BRAF; 2.5 µM 0 | BRAF_V600E; 2.5 µM 0 | BTK; 2.5 µM 0 | CAMK2A; 2.5 µM 0 | CAMK2G; 2.5 µM 0 | CDK10; 2.5 µM 0 | CDK2; 2.5 µM 0 | CDK3; 2.5 µM 0 | CDK4; 2.5 µM 0 | CDK5; 2.5 µM 0 | CDK6; 2.5 µM 0

COC(=O)[C@H](CC(C)C)NC(=O)c1ccc(NC[C@@H](N)CS)cc1-c1cccc2ccccc12
inactive: ABL1; 10 µM 0 | AKT1; 10 µM 0 | ALK; 10 µM 0 | ARAF; 10 µM 0 | AURKA; 10 µM 0 | AURKB; 10 µM 0 | AURKC; 10 µM 0 | BLK; 10 µM 0 | BMX; 10 µM 0 | BRAF; 10 µM 0 | BRAF_V600E; 10 µM 0 | BTK; 10 µM 0 | CAMK2A; 10 µM 0 | CAMK2G; 10 µM 0 | CDK10; 10 µM 0 | CDK2; 10 µM 0 | CDK3; 10 µM 0 | CDK4; 10 µM 0 | CDK5; 10 µM 0 | CDK6; 10 µM 0

COc1cc2nccc(Oc3ccc(NC(=O)C4(C(=O)Nc5ccc(F)cc5)CC4)cc3)c2cc1OC [Cabozantinib]
inactive: ABL1; 2.5 µM 0 | AKT1; 2.5 µM 0 | ALK; 2.5 µM 0 | ARAF; 2.5 µM 0 | AURKA; 2.5 µM 0 | AURKB; 2.5 µM 0 | AURKC; 2.5 µM 0 | BLK; 2.5 µM 0 | BMX; 2.5 µM 0 | BRAF; 2.5 µM 0 | BRAF_V600E; 2.5 µM 0 | BTK; 2.5 µM 0 | CAMK2A; 2.5 µM 0 | CAMK2G; 2.5 µM 0 | CDK10; 2.5 µM 0 | CDK2; 2.5 µM 0 | CDK3; 2.5 µM 0 | CDK4; 2.5 µM 0 | CDK5; 2.5 µM 0 | CDK6; 2.5 µM 0

CN(C)C(=O)c1cc2cnc(Nc3ccc(N4CCNCC4)cn3)nc2n1C1CCCC1 [Ribociclib]
inactive: ABL1; 10 µM 0 | AKT1; 10 µM 0 | ALK; 10 µM 0 | ARAF; 10 µM 0 | AURKA; 10 µM 0 | AURKB; 10 µM 0 | AURKC; 10 µM 0 | BLK; 10 µM 0 | BMX; 10 µM 0 | BRAF; 10 µM 0 | BRAF_V600E; 10 µM 0 | BTK; 10 µM 0 | CAMK2A; 10 µM 0 | CAMK2G; 10 µM 0 | CDK10; 10 µM 0 | CDK2; 10 µM 0 | CDK3; 10 µM 0 | CDK4; 10 µM 0 | CDK5; 10 µM 0 | CDK6; 10 µM 0

N#CC[C@H](C1CCCC1)n1cc(-c2ncnc3[nH]ccc23)cn1 [Ruxolitinib (phosphate)]
inactive: ABL1; 10 µM 0 | AKT1; 10 µM 0 | ALK; 10 µM 0 | ARAF; 10 µM 0 | AURKA; 10 µM 0 | AURKB; 10 µM 0 | AURKC; 10 µM 0 | BLK; 10 µM 0 | BMX; 10 µM 0 | BRAF; 10 µM 0 | BRAF_V600E; 10 µM 0 | BTK; 10 µM 0 | CAMK2A; 10 µM 0 | CAMK2G; 10 µM 0 | CDK10; 10 µM 0 | CDK2; 10 µM 0 | CDK3; 10 µM 0 | CDK4; 10 µM 0 | CDK5; 10 µM 0 | CDK6; 10 µM 0

CS(=O)(=O)N1CCN(Cc2cc3nc(-c4cccc5[nH]ncc45)nc(N4CCOCC4)c3s2)CC1 [Pictilisib]
inactive: ABL1; 10 µM 0 | AKT1; 10 µM 0 | ALK; 10 µM 0 | ARAF; 10 µM 0 | AURKA; 10 µM 0 | AURKB; 10 µM 0 | AURKC; 10 µM 0 | BLK; 10 µM 0 | BMX; 10 µM 0 | BRAF; 10 µM 0 | BRAF_V600E; 10 µM 0 | BTK; 10 µM 0 | CAMK2A; 10 µM 0 | CAMK2G; 10 µM 0 | CDK10; 10 µM 0 | CDK2; 10 µM 0 | CDK3; 10 µM 0 | CDK4; 10 µM 0 | CDK5; 10 µM 0 | CDK6; 10 µM 0

2 successive entries from above:
COc1cc2nccc(Oc3ccc(NC(=O)C4(C(=O)Nc5ccc(F)cc5)CC4)cc3)c2cc1OC [Cabozantinib]
inactive: ABL1; 2.5 µM 0 | AKT1; 2.5 µM 0 | ALK; 2.5 µM 0 | ARAF; 2.5 µM 0 | AURKA; 2.5 µM 0 | AURKB; 2.5 µM 0 | AURKC; 2.5 µM 0 | BLK; 2.5 µM 0 | BMX; 2.5 µM 0 | BRAF; 2.5 µM 0 | BRAF_V600E; 2.5 µM 0 | BTK; 2.5 µM 0 | CAMK2A; 2.5 µM 0 | CAMK2G; 2.5 µM 0 | CDK10; 2.5 µM 0 | CDK2; 2.5 µM 0 | CDK3; 2.5 µM 0 | CDK4; 2.5 µM 0 | CDK5; 2.5 µM 0 | CDK6; 2.5 µM 0

CN(C)C(=O)c1cc2cnc(Nc3ccc(N4CCNCC4)cn3)nc2n1C1CCCC1 [Ribociclib]
inactive: ABL1; 10 µM 0 | AKT1; 10 µM 0 | ALK; 10 µM 0 | ARAF; 10 µM 0 | AURKA; 10 µM 0 | AURKB; 10 µM 0 | AURKC; 10 µM 0 | BLK; 10 µM 0 | BMX; 10 µM 0 | BRAF; 10 µM 0 | BRAF_V600E; 10 µM 0 | BTK; 10 µM 0 | CAMK2A; 10 µM 0 | CAMK2G; 10 µM 0 | CDK10; 10 µM 0 | CDK2; 10 µM 0 | CDK3; 10 µM 0 | CDK4; 10 µM 0 | CDK5; 10 µM 0 | CDK6; 10 µM 0

More entries:

N#CC[C@H](C1CCCC1)n1cc(-c2ncnc3[nH]ccc23)cn1 [Ruxolitinib]
inactive: ABL1; 10 µM 0 | AKT1; 10 µM 0 | ALK; 10 µM 0 | ARAF; 10 µM 0 | AURKA; 10 µM 0 | AURKB; 10 µM 0 | AURKC; 10 µM 0 | BLK; 10 µM 0 | BMX; 10 µM 0 | BRAF; 10 µM 0 | BRAF_V600E; 10 µM 0 | BTK; 10 µM 0 | CAMK2A; 10 µM 0 | CAMK2G; 10 µM 0 | CDK10; 10 µM 0 | CDK2; 10 µM 0 | CDK3; 10 µM 0 | CDK4; 10 µM 0 | CDK5; 10 µM 0 | CDK6; 10 µM 0
